Measurements published in publication doi:10.1101/2025.01.14.633073.
Results are given in words; binding and its absence hold for the method and conditions named. In cells and extracts the contact can be indirect. Some results given as binding are weak or reduced against the parent protein; the word gives no strength.

Target: Inositol-Requiring Enzyme 1 (IRE-1), human (human (endogenous in A549)), O75460
Experiment: co-IP
Details: remark: other sources report otherwise

B1: Sec-62, human, Q99442 1-399 (protein)
chain: MAERRRHKKRIQEVGEPSKEEKAVAKYLRFNCPTKSTNMMGHRVDYFIASKAVDCLLDSKWAKAKKGEEALFTTRESVVDYCNRLLKKQFFHRALKVMKMKYDKDIKKEKDKGKAESGKEEDKKSKKENIKDEKTKKEKEKKKDGEKEESKKEETPGTPKKKETKKKFKLEPHDDQVFLDGNEVYVWIYDPVHFKTFVMGLILVIAVIAATLFPLWPAEMRVGVYYLSVGAGCFVASILLLAVARCILFLIIWLITGGRHHFWFLPNLTADVGFIDSFRPLYTHEYKGPKADLKKDEKSETKKQQKSDSEEKSDSEKKEDEEGKVGPGNHGTEGSGGERHSDTDSDRREDDRSQHSSGNGNDFEMITKEELEQQTDGDCEEDEEEENDGETPKSSHEKS
With B1 the binding was “binds”.
